## Drug screen on melanoma cell lines: apoptosis marker

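Human melanoma cells were exposed to two drugs together for 72 h in 1,536-well plates and read by automated microscopy after fixing and staining. The read-out is the fraction of cleaved-PARP-positive nuclei, in % of that fraction in the DMSO control; 200 means twice the control level of this apoptosis marker. Every drug was used at one fixed concentration, the higher of two screened. These are primary screening values without error estimates. The marker varies much from line to line, for technical or biological reasons.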 An unselected part of the screen is shown. An entry leaves out what has no value listed here. A dash means that no value is listed here.

Drugs:
fingolimod: CCCCCCCCc1ccc(CCC(N)(CO)CO)cc1 at 10000 nM
AZD7762: NC(=O)Nc1cc(-c2cccc(F)c2)sc1C(=O)N[C@H]1CCCNC1 at 100 nM
GSK0660: COC(=O)c1sccc1S(=O)(=O)Nc1ccc(Nc2ccccc2)cc1OC at 5000 nM
SNS-314: O=C(Nc1cccc(Cl)c1)Nc1ncc(CCNc2ncnc3ccsc23)s1 at 4 nM
A-769662: N#Cc1c(O)c2c(-c3ccc(-c4ccccc4O)cc3)csc2[nH]c1=O at 10000 nM
vatalanib: Clc1ccc(Nc2nnc(Cc3ccncc3)c3ccccc23)cc1 at 10000 nM

Cell line | SNS-314 and A-769662 | AZD7762 and GSK0660 | A-769662 and vatalanib | SNS-314 and vatalanib | A-769662 and AZD7762 | vatalanib and GSK0660 | GSK0660 and fingolimod | GSK0660 and A-769662
WM3619 | 105 | 509 | 125 | 153 | 501 | 154 | 1860 | 91.9
WM1716 | 39.8 | 205 | 319 | 351 | 239 | 192 | 128 | 50.0
RPMI-7951 | 530 | 118 | 116 | 68.9 | 139 | 50.6 | 804 | 54.3
IST-MEL1 | 317 | 62.3 | 29.4 | 124 | 148 | 95.1 | 1850 | 64.8
IPC-298 | 99.0 | 49.6 | 93.3 | 178 | 70.8 | 85.3 | 265 | 30.1
A375 | 105 | 481 | 173 | - | 419 | 141 | 48.3 | 37.5
WM3526 | 99.6 | 297 | 153 | 165 | 506 | 152 | 2030 | 62.6
COLO 829 | 213 | 43.8 | 133 | 184 | 31.6 | 138 | 144 | 54.0
MeWo | 216 | 89.9 | 87.7 | 142 | 291 | 104 | 167 | 75.1
SK-MEL-5 | 56.3 | 66.5 | 40.9 | 72.1 | 127 | 35.5 | 37.7 | 635
WM1745 | 141 | 126 | - | 316 | 139 | - | - | 102
COLO 792 | 202 | 200 | 74.5 | 289 | 376 | 167 | 5740 | 96.1
LB2518-MEL | 143 | 96.6 | 61.2 | 122 | - | 188 | 4320 | -
501mel | 91.5 | 61.6 | 104 | - | - | 130 | 3030 | -
G-361 | 103 | 71.7 | 90.1 | 187 | 29.6 | 37.5 | 9700 | 24.7
UACC-62 | 139 | 199 | 208 | 116 | 85.4 | 249 | 296 | 137
LOX IMVI | 164 | 74.1 | 101 | 101 | 186 | 74.7 | 47.6 | 82.9
UACC-257 | 17.2 | 35.7 | 45.6 | 111 | 31.6 | 122 | 102 | 39.9
RVH-421 | 394 | 102 | 316 | 66.1 | 38.9 | 167 | 1140 | 121
SK-MEL-2 | 211 | 151 | 57.5 | 53.0 | - | 108 | 4120 | 175
C32 | 139 | 118 | 69.2 | 498 | 111 | 105 | 1200 | 102
MZ2-MEL | 145 | 10.5 | 47.3 | 157 | - | 232 | 5680 | -
WM115 | 311 | 123 | 60.8 | 74.9 | 146 | 41.5 | 3390 | 43.9
SK-MEL-28 | 242 | 257 | 31.5 | 45.0 | 901 | 55.6 | - | 38.5
A2058 | 367 | 201 | 115 | 154 | 274 | 139 | 2100 | 62.8
SK-MEL-30 | 103 | 157 | 89.7 | 187 | 185 | 126 | 517 | 84.1
A101D | 85.6 | 125 | 206 | 256 | 127 | 63.8 | 699 | 145
MEL-HO | 59.4 | 108 | 379 | 48.0 | 54.4 | 127 | 2130 | 117
WM451Lu | 207 | 188 | 70.4 | 177 | 397 | 83.7 | 6650 | 28.2
COLO 800 | 213 | 71.1 | 123 | 173 | 60.1 | 132 | 174 | 145

Repeated from the top, 2 entries:

{"cell line": "WM3619", "SNS-314 and A-769662": 105, "AZD7762 and GSK0660": 509, "A-769662 and vatalanib": 125, "SNS-314 and vatalanib": 153, "A-769662 and AZD7762": 501, "vatalanib and GSK0660": 154, "GSK0660 and fingolimod": 1860, "GSK0660 and A-769662": 91.9}
{"cell line": "WM1716", "SNS-314 and A-769662": 39.8, "AZD7762 and GSK0660": 205, "A-769662 and vatalanib": 319, "SNS-314 and vatalanib": 351, "A-769662 and AZD7762": 239, "vatalanib and GSK0660": 192, "GSK0660 and fingolimod": 128, "GSK0660 and A-769662": 50.0}

Data from the primary screen of doi:10.1371/journal.pone.0140310, rounded.